Experimental data taken from PubChem BioAssay AID504467 (National Center for Advancing Translational Sciences (NCATS), 2011).
Among all 330,000 compounds or so, about 7,700 (2.3%) were called active. The inconclusive results got no clear call from the source; some entries with a clear call stand among them for comparison. Calls follow the shape of the dose curve; as a rule, active = well fitted inhibition curve with a large enough effect; inconclusive = small, poorly fitted or top-dose-only effect, or effect the other way; inactive = flat fitted curve, though single readings scatter. Potencies of inconclusive entries are doubtful fits and often do not repeat.

Assay: qHTS screen for small molecules that inhibit ELG1-dependent DNA repair in human embryonic kidney (HEK293T) cells expressing luciferase-tagged ELG1; also: nearly all actives have a fitted effect of over 55% in size
Settings: HEK293T ELG1-luciferase reporter, luminescence, 16 h, DNA damage induced by 5-fluorouridine; series mostly up to 46.1 µM
Method in brief: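 HEK293T cells expressing luciferase-tagged ELG1 (2,000/well) received 5-Fluorouridine plus compound or DMSO for 16 hr at 37 °C. Luciferase was read by ONE-Glo luminescence after 30 min at room temperature.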
Potency is read from the fitted curve at half-maximal effect.

| Structure (SMILES) | Potency |
| --- | --- |
| CN(C)S(=O)(=O)c1cccc(C(=O)N2CCc3ccccc32)c1 | inactive |
| O=C(O)c1cccc(-c2nc3ccccc3[nH]2)c1 | inconclusive: 7.31 µM [inhibitor, partial curve, poor fit] |
| O=C(OCC(=O)c1ccccc1)C1=NN(c2ccccc2)C(=O)CC1 | inconclusive: 1.83 µM [activator, single point] |
| Fc1ccccc1COc1ccc(Br)cc1CNCc1ccncc1 | inconclusive: 16.4 µM [inhibitor, single point] |
| O=C(Cc1cccs1)N[C@@H]1c2ccccc2CC[C@H]1OCc1ccccc1 | inactive |
| O=C(Cc1ccccc1)N1CCNCC1 | inconclusive: 29.1 µM [activator, partial curve, poor fit] |
| CC(C)C[C@@H](CO)N(Cc1ccccc1)S(=O)(=O)N(Cc1ccccc1)[C@H](CO)CC(C)C | inconclusive: 29.1 µM [inhibitor, single point] |
| Cc1cc(C)n(-c2ccc(N3CCOCC3)nn2)n1 | inconclusive: 10.3 µM [activator, partial curve] |
| Cc1ccc2c(c1)N(CC(=O)NC(C)CCc1ccccc1)C(=O)c1cccnc1O2 (stereo not given) | inactive |
| CCCCCCCn1ccc(=N)cc1 | inconclusive: 1.3 µM [inhibitor, full curve] |
| O=C(CN1CCN(c2ccccn2)CC1)Nc1ccc(Cl)c(C(F)(F)F)c1 | inconclusive: 16.4 µM [inhibitor, single point] |
| CC(=O)Nc1nc2ccccc2n1Cc1ccccc1 | inactive |
| COc1ccc(CC(=O)OCC(=O)NC2CCCC(C)C2C)cc1OC (stereo not given) | inconclusive: 18.3 µM [activator, partial curve, poor fit] |
| CCOC(=O)Cc1csc(NC(=S)NC(=O)c2cccc([N+](=O)[O-])c2)n1 | inactive |
| CCOC(=O)c1ccc(NC(=O)CN(C)S(=O)(=O)c2ccc(OC)cc2)cc1 | inactive |
| Cc1ccc2c(c1)[C@H]1[C@H](CO2)[C@H](c2ccccc2)[C@]2(C)C(=O)Nc3cc(F)ccc3C(=O)N12 | inconclusive: 29.1 µM [inhibitor, single point] |
| CN(C)c1ccc(/C=C(\Cl)c2nc3ccccc3s2)cc1 | inconclusive: 0.517 µM [activator, partial curve] |
| COc1cccc(C(=O)CSc2nc3ccccc3n2CC(=O)N2CCOCC2)c1 | inactive |
| COc1cccc(-c2ccc(SCC(=O)NCCc3ccccc3)nn2)c1 | inconclusive: 29.1 µM [activator, partial curve, poor fit] |
| CCCC(C)NC(=O)Cc1ccc(S(=O)(=O)N2CCOCC2)s1 (stereo not given) | inactive |
| CCC(=O)c1cn(CC(=O)Nc2c(C)cccc2C)c2ccccc12 | inactive |
| CCOc1ccc(-c2cc(CCCC(=O)NCCCOC)no2)cc1 | inconclusive: 11.6 µM [activator, partial curve] |
| COc1ccc(NC(C)=O)c2nc(C)c(C)nc12 | inconclusive: 29.1 µM [activator, single point] |
| COCCn1c(SCC(=O)Nc2ccccc2OC)nc2c(oc3ccccc32)c1=O | inconclusive: 20.6 µM [inhibitor, single point] |

Compounds above that contain a thiophene ring, fused or not, in the order listed:

| Structure (SMILES) | Potency |
| --- | --- |
| O=C(Cc1cccs1)N[C@@H]1c2ccccc2CC[C@H]1OCc1ccccc1 | inactive |
| CCCC(C)NC(=O)Cc1ccc(S(=O)(=O)N2CCOCC2)s1 (stereo not given) | inactive |

(list continues)

| Structure (SMILES) | Potency |
| --- | --- |
| CC(=O)Nc1coc2ccc(Br)cc12 | inconclusive: 2.59 µM [inhibitor, full curve] |
| O=C(C[n+]1ccccc1)N/N=C/c1cc(Br)cc(Br)c1O | active: 20.6 µM |
| CCCCCCCNC(=O)C1(CC2CC(c3cccc(Br)c3)=NO2)CCN(C(=O)c2cc(OCC)c(OCC)c(OCC)c2)CC1 (stereo not given) | inconclusive: 28.2 µM [inhibitor, single point] |
| CCN(CC(=O)NCc1ccc(Cl)cc1)C(=O)CSc1cc(C)ccc1C | inactive |
| CCC(C(=O)N1CCOCC1)n1nc(C)n2c(cc3cc(C)ccc32)c1=O (stereo not given) | inactive |
| O=C(Nc1ccc2c(c1)OCCO2)C1CC(c2ccccc2Cl)=NO1 (stereo not given) | inconclusive: 20.6 µM [activator, partial curve] |
| CC(=O)c1ccc(N2Cc3ccccc3/C2=N\C(=O)Nc2ccc(Cl)cc2)cc1 | inconclusive: 11.6 µM [activator, partial curve, poor fit] |
| CC(=NNC(=O)c1cc(C)oc1C)c1ccc(Br)s1 | inconclusive: 14.6 µM [activator, partial curve, poor fit] |
| COc1ccc(NC(=O)c2ccc(CNS(=O)(=O)c3cccc(OC)c3)cc2)cc1 | inconclusive: 29.1 µM [activator, single point] |
| CCOC(=O)C1(Cc2cccc(OC)c2)CCCN(C(=O)CCN2CCCO2)C1 (stereo not given) | inconclusive: 20.6 µM [activator, partial curve] |
| CN(C)C1=C(Cl)C(=O)N(c2ccc(Cl)c(Cl)c2)C1=O | inconclusive: 20.6 µM [activator, partial curve, poor fit] |
| COc1ccc(NS(=O)(=O)c2ccc(N3CCOCC3)c(NC(=O)C(C)C)c2)cc1 | inactive |
| C/C(=N\NC(=O)c1ccccc1O)c1cccs1 | inconclusive: 1.83 µM [activator, full curve] |
| Cc1ccccc1C(=O)Oc1cc(N)n(S(C)(=O)=O)n1 | inconclusive: 25.9 µM [activator, partial curve, poor fit] |
| Cc1ccc(OC(=O)c2cccc(S(=O)(=O)N3CCN(C)CC3)c2)c(Br)c1 | inactive |
| COCCCNC(=O)c1ccc(Cn2c(=O)c3ccccc3n(Cc3cc(C)ccc3C)c2=O)cc1 | inconclusive: 18.4 µM [inhibitor, partial curve, poor fit] |
| COc1ccccc1NC(=O)CSc1nnc(COc2ccc(Cl)cc2)n1Cc1ccco1 | inconclusive: 20.6 µM [inhibitor, single point] |
| CCN(C(=O)c1cccs1)c1nc(-c2ccc(OC)cc2)cs1 | inconclusive: 5.8 µM [activator, single point] |
| O=C(NCCCN1CCN(c2cccc(Cl)c2)CC1)C1(S(=O)(=O)c2ccc(Cl)cc2)CC1 | inconclusive: 16.4 µM [inhibitor, partial curve, poor fit] |
| Cc1cccc(C)c1NC(=O)c1c(C)nn(-c2ccccc2)c1Cl | inactive |
| Cc1ccc(S(=O)(=O)N2CCN(S(=O)(=O)N3CCC(C)CC3)CC2)c(C)c1 | inactive |
| Cc1cc2c(c(=O)o1)C(c1ccc([N+](=O)[O-])o1)C(C#N)=C(N)O2 (stereo not given) | inconclusive: 29.1 µM [activator, single point] |
| COc1ccc(NC(=O)CSc2nnc(C)c3ccccc23)cc1 | inactive |
| O=C(Nc1cccc(C(F)(F)F)c1)c1ccco1 | inactive |

| Structure (SMILES) | Potency |
| --- | --- |
| CCOc1ccccc1C(=O)NCc1ccc2c(c1)OCO2 | inactive |
| O=C(NCc1ccc2c(c1)OCO2)C12CN(Cc3ccccc3)CC1C(c1cccc([N+](=O)[O-])c1)=NO2 (stereo not given) | inconclusive: 11.6 µM [inhibitor, partial curve, poor fit] |
| COc1ccccc1NC(=O)CSc1nnc(Cn2nnc(-c3ccccc3)n2)n1-c1ccccc1 | inconclusive: 22.4 µM [inhibitor, single point] |
| COc1ccc(C2NN=C(c3ccc(C)cc3)S2)cc1 (stereo not given) | inconclusive: 2.91 µM [activator, partial curve] |
| COc1ccc2[nH]c3c(c2c1)CCN1C(=O)C(CC(=O)NCCc2ccccn2)C[C@H](C(=O)N(C(C)C)C(C)C)[C@@]31C (stereo not given in full) | inactive |
| Cc1ccc2c(Cl)c(C(=O)Nc3cccnc3)sc2c1 | active: 8.2 µM |
| CN(C)c1cccc(-c2nnc(SCCCC#N)o2)c1 | inconclusive: 5.8 µM [activator, partial curve] |
| COc1c(C)cc(C(=O)C2CCCN(C(=O)c3ccc4[nH]ccc4c3)C2)cc1C (stereo not given) | inconclusive: 23.1 µM [inhibitor, single point] |
| COc1ccc(/C=C/C(=O)c2ccccc2O)cc1CN1CCOCC1 | inconclusive: 23.1 µM [inhibitor, single point] |
| Cn1nnnc1SCC(=O)N1CCN(S(=O)(=O)c2ccc(Cl)cc2)CC1 | inactive |
| CC(C)(C)c1ccc(S(=O)(=O)N2CCC(NC(=O)c3ccco3)CC2)cc1 | inactive |
| O=S(=O)(CC(CN1CCCCC1)N1CCCCC1)c1ccc2ccccc2c1 (stereo not given) | inconclusive: 3.66 µM [inhibitor, single point] |
| O=C(O)c1ccccc1-n1cnnn1 | inconclusive: 29.1 µM [inhibitor, single point] |
| CSc1nnc(-c2ccc(F)cc2)o1 | inconclusive: 23.1 µM [activator, single point] |
| C/C(=N/NC(=O)c1cccc(N2CCCC2=O)c1)c1ccncc1 | inconclusive: 13 µM [activator, partial curve] |
| COc1ccc(Cl)cc1NC(=O)c1nnn(CC(=O)Nc2ccc(C)c(C)c2)c1N | inconclusive: 18.3 µM [activator, partial curve, poor fit] |
| C=C(c1ccccc1O)n1ccnc1 | inactive |
| O=C1CCC(C(=O)N2CCCC(C(=O)c3ccc4c5c(cccc35)CC4)C2)=NN1 (stereo not given) | inconclusive: 9.2 µM [inhibitor, partial curve, poor fit] |
| Cc1ccc(NC(=O)CSCC(=O)N(C)CC(=O)Nc2ccccc2C(F)(F)F)cc1 | inactive |
| COc1ccc(-c2c(-c3cc(OC)cc(OC)c3)n(C)c3ccc(-c4ccc(SC)cc4)cc23)cc1 | inconclusive: 29.1 µM [activator, single point] |
| CC(C)(C)CC(C)(C)NCC(O)COc1c(F)cc(Br)cc1F (stereo not given) | inactive |
| CCOc1ccc(CC(=O)Nc2cccc(-c3ccc4nnc(C)n4n3)c2)cc1 | inconclusive: 20.6 µM [activator, partial curve] |

Part of the list above in order of number of heavy atoms, descending.

| Structure (SMILES) | Potency |
| --- | --- |
| COc1ccccc1NC(=O)CSc1nnc(Cn2nnc(-c3ccccc3)n2)n1-c1ccccc1 | inconclusive: 22.4 µM [inhibitor, single point] |
| COc1ccc(Cl)cc1NC(=O)c1nnn(CC(=O)Nc2ccc(C)c(C)c2)c1N | inconclusive: 18.3 µM [activator, partial curve, poor fit] |
| COc1ccc(C2NN=C(c3ccc(C)cc3)S2)cc1 (stereo not given) | inconclusive: 2.91 µM [activator, partial curve] |
